Source: doi:10.1101/2020.04.23.057919
These are yes or no findings as the source states them, for the method shown. In cells and extracts the contact can be indirect. Some binding calls cover weakened binding; strength is not graded here. Tags and fused reporters may be left off the sequences shown.

By UniProt entry, the sequences of proteins in these tests, tags left out.
UniProt Q91731: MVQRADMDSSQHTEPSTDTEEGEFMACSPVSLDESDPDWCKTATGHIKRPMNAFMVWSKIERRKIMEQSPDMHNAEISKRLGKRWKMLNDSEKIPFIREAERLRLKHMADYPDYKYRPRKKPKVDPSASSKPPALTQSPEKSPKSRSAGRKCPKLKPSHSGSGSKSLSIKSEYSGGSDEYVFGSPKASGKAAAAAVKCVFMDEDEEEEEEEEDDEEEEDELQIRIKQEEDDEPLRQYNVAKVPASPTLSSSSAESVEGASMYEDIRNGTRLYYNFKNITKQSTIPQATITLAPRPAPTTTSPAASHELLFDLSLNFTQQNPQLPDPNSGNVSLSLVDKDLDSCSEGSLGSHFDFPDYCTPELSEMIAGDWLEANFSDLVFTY
UniProt Q7M6Y2: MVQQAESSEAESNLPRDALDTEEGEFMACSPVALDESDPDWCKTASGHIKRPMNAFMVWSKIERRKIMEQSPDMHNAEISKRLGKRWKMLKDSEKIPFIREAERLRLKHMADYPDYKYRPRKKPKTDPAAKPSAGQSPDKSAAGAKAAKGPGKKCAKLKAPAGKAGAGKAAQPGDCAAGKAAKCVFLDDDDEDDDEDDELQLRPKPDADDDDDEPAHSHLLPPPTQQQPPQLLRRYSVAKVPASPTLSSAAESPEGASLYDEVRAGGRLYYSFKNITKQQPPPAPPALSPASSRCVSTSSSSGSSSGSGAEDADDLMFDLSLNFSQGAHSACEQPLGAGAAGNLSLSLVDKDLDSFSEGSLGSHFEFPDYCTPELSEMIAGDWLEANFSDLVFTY

Tests used:
[1] = biological target: Xenopus Sox11 with FLAG tag (xSox11-FLAG), expressed in HEK293 cells (Xenopus) (UniProt Q91731); assay: co-IP
[2] = biological target: mouse SOX11 with FLAG tag (mSOX11-FLAG) (mouse) (UniProt Q7M6Y2); assay: co-IP

B1: mouse NGN1 with MYC tag (mNGN1-MYC) (protein, UniProt P70660 1-244)
chain: MPAPLETCISDLDCSSSNSSSDLSSFLTDEEDCARLQPLASTSGLSVPARRSAPALSGASNVPGAQDEEQERRRRRGRARVRSEALLHSLRRSRRVKANDRERNRMHNLNAALDALRSVLPSFPDDTKLTKIETLRFAYNYIWALAETLRLADQGLPGGSARERLLPPQCVPCLPGPPSPASDTESWGSGAAASPCATVASPLSDPSSPSASEDFTYGPGDPLFSFPGLPKDLLHTTPCFIPYH
For B1, the binding [1] was “no binding” and the binding [2] was “binds”.
